Results taken from US20070212331A1, “Methods and compositions for selectively killing cells” (priority 2006, published 2007).
At least one structure is not confirmed: it was looked up by name or label, or the drawing left a doubt.

Test system: IIC9 cells (embryonic fibroblasts)
Test: IIC9 cell death by trypan blue uptake
Assay type: cell-based
Settings: 30 min preincubation, then 50 μM zinc (FIG. 2A)

Oc1c2ccccc2c2c3c(cccc13)N=N2 [SP600125]
effect of preincubation with inhibitor on zinc-mediated cell death: does not affect zinc-mediated cell death
